Results are given as percent effect. How 0% and 100% were set is not recorded. Most values in the screen are low, and negative values occur. Compounds were drawn at random from those tested, without regard to their results. A dash means the value is not listed here; it may have been measured.

By UniProt entry, the sequences of proteins in these tests, tags left out. Residues count along the entry.
UniProt I6X8D2, whole entry: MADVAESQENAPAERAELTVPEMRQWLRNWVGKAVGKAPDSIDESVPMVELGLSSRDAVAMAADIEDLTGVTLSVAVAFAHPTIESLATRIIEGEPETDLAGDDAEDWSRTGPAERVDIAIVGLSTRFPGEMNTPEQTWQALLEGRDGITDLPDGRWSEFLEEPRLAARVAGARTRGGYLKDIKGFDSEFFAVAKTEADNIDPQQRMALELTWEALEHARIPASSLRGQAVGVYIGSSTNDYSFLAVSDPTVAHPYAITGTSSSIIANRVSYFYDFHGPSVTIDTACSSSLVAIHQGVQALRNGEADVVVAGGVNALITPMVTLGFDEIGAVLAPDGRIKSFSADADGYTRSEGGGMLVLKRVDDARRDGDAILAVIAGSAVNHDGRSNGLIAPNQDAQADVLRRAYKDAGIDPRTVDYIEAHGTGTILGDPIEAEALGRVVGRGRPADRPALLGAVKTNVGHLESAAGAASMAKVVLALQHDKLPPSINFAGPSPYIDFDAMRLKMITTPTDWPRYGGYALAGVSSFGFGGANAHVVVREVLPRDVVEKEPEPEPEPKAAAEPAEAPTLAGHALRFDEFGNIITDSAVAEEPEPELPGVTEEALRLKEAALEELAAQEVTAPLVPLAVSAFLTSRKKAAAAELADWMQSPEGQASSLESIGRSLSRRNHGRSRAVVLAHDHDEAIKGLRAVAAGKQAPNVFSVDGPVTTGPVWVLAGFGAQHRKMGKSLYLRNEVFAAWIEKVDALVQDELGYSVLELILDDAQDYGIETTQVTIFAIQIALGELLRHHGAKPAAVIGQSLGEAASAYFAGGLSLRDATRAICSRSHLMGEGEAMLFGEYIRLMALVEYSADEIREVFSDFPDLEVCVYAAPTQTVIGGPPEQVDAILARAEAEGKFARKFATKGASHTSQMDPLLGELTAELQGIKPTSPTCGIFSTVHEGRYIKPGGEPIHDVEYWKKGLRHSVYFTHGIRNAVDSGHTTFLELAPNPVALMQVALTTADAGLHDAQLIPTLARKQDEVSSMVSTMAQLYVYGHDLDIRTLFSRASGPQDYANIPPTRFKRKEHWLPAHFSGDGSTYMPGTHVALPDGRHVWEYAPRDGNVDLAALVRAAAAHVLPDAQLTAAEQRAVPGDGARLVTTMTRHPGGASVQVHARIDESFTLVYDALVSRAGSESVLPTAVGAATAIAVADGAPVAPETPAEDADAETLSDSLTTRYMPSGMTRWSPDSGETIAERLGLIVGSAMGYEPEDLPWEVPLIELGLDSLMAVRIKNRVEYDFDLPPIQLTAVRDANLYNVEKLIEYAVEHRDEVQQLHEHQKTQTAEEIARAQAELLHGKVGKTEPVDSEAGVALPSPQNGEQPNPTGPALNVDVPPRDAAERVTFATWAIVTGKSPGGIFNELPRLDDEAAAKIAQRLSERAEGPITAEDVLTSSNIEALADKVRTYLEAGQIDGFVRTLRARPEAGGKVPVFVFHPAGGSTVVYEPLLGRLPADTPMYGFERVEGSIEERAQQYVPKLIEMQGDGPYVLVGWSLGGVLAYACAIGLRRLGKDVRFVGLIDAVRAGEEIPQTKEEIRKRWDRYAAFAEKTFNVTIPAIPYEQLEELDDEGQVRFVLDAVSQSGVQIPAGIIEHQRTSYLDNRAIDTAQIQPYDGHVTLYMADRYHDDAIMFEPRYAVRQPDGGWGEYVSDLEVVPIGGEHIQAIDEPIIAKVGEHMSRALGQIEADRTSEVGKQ
UniProt Q8IDJ8, 1-583: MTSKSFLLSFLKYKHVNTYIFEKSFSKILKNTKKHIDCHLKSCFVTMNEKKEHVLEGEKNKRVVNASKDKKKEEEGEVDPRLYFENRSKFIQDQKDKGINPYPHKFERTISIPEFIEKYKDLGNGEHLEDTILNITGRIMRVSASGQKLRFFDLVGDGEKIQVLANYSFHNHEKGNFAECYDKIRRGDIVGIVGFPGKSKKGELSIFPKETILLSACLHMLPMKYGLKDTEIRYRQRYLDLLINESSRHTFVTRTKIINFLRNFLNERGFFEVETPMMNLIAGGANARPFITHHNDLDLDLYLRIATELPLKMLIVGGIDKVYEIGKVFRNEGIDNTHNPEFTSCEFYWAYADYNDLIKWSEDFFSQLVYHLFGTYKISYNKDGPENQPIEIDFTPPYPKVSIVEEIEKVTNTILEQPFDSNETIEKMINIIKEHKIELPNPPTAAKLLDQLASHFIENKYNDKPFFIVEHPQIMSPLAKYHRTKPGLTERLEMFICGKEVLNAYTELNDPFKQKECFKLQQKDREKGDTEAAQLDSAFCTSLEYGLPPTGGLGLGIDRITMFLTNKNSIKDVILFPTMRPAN
UniProt A4I591, 1-473: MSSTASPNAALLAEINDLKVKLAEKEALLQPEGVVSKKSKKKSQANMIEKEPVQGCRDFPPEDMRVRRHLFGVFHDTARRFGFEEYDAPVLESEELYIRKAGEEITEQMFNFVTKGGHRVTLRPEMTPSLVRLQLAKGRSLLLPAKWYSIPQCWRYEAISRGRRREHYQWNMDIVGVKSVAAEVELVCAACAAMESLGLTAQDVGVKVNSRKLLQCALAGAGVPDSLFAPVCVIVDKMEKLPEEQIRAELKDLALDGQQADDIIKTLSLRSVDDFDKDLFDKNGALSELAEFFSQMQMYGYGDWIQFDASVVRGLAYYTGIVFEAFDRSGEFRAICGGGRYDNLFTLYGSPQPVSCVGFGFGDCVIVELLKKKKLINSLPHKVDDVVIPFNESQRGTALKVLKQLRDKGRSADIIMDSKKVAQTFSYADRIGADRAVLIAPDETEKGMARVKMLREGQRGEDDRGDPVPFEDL
UniProt P9WFT3, whole entry: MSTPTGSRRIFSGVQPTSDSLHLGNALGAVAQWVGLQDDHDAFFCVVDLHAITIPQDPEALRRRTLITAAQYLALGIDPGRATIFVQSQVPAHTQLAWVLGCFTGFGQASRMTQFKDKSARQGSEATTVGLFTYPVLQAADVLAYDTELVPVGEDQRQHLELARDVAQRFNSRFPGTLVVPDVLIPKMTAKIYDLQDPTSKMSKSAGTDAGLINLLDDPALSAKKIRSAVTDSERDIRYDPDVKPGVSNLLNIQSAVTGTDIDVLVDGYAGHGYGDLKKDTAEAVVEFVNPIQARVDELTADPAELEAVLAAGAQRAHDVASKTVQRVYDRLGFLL

Pks13 thioesterase: 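Polyketide synthase Pks13, Mycobacterium tuberculosis (UniProt I6X8D2). Enzyme assay of the thioesterase domain of polyketide synthase 13; the read-out is not stated. Concentration: 30 µM. The record gives no direction; the compounds picked for IC50 retests had high values, so higher reads as stronger inhibition. Size under these conditions: about 67,000 compounds, about 300 of them at 50% or above in at least one test.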
PfKRS1: 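Enzyme assay of the cytosolic lysyl-tRNA synthetase in 384-well plates, read by luminescence. Target: Lysine-tRNA ligase, Plasmodium falciparum 3D7 (UniProt Q8IDJ8). Tested at 30 µM. Direction is inferred from only a few compounds that gave an IC50; most scored high, so higher reads as stronger inhibition. Size under these conditions: about 69,000 compounds, about 49 of them at 50% or above in at least one test.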
LiHisRS: 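Enzyme assay of histidyl-tRNA synthetase; the read-out is not stated. Target: Histidine-tRNA ligase, Leishmania infantum (UniProt A4I591). Compounds at 30 µM. Higher reads as stronger inhibition (inferred: compounds with an IC50 in retests scored well above the rest). The assay is labelled LdHisRS but filed under L. infantum. About 69,000 compounds were tested under these conditions; 0.6% (about 410) showed 50% or more at least once.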
MtTrpRS: 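Tryptophan-tRNA ligase, Mycobacterium tuberculosis (UniProt P9WFT3). Enzyme assay of tryptophanyl-tRNA synthetase; the read-out is not stated. Tested at 10 µM. Direction is not recorded; retested compounds ran higher, which suggests that high means inhibition. Of about 65,000 compounds tested this way, about 64 (0.098%) reached 50% or more in at least one test.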

SMILES | Pks13 thioesterase | PfKRS1 | LiHisRS | MtTrpRS
Cc1ccc2nc(C)c(C)c(C(=O)N[C@H]3COC[C@@H]3N3CCCC3)c2c1 | 9.014 | 8.247 | 2.632 | -4.054
C[C@@H]1CN(C(=O)CCCn2nnc(-c3ccc(F)cc3)n2)C[C@]1(C)O | 8.955 | -1.864 | -5.833 | 12.8
Cc1cnn(CC2CN(CC(=O)N(C)c3nccs3)CCO2)c1 (configuration not stated) | -11.13 | 1.352 | 17.57 | 3.125
Cc1ccc2cnn(CCC(=O)Nc3c(C)nn(C)c3C)c2c1 | -2.72 | 0.5253 | 8.491 | -1.574
COC(=O)CNC(=O)Cn1ccc2ccc(F)cc21 | -7.534 | 3.458 | 16.67 | -2.573
CCCN1CC2(CCN(c3ncc(F)cn3)CC2)CC1C(=O)O (configuration not stated) | -3.298 | 5.67 | 11.57 | -5.942
CNC(=O)c1cccc(C2CNCCN2C(=O)C2CCNCC2)c1 (configuration not stated) | 16.81 | 5.168 | 12.37 | -
O=C(Cc1ccccc1Cl)N1CCN(CC(O)COCCO)CC1 (configuration not stated) | -29 | 0.8139 | 11.01 | 0.936
Cc1noc(C)c1CN(C)Cn1c(=O)n(C)c2ccccc21 | 5.467 | -0.7733 | 17.07 | 4.454
CCN(Cc1cnc(NCc2ccccc2)nc1)C1CCS(=O)(=O)C1 (configuration not stated) | -26.81 | 1.512 | 24.79 | 0.6861
CCC(=O)Nc1cccc(OCC(=O)N(C)Cc2ccon2)c1 | -19.33 | 2.595 | 10.75 | 3.924
CCOc1ncccc1CNS(=O)(=O)c1ccc2c(c1)CCO2 | -5.764 | 4.593 | 8.333 | -9.391
Cc1noc(CN(Cc2cccs2)C2CC2)n1 | 2.497 | -2.729 | 12.94 | -1.485
CNC(=O)c1cc(NC(=O)Nc2cnn(CC(C)C)c2)ccc1F | -12.85 | 3.905 | 27.06 | 4.996
COC(=O)CN(C(=O)c1ccco1)c1cccc(F)c1 | 5.714 | -0.2424 | 12 | 2.559
COCc1cccc(C(=O)N2CCCN(C(=O)OCC(C)C)CC2)c1 | -19.7 | 6.102 | 11.83 | -4.581
CCN1CCN(C2(C(=O)NC3CCCC3)Cc3ccccc3C2)CC1 | -2.892 | 4.951 | 15.96 | 6.065
O=S1(=O)CCC(n2nc(COc3ccccc3)nc2-c2cnccn2)C1 (configuration not stated) | -2.016 | 0.429 | 7.2 | -1.087
CCC1(CO)CCN(C(=O)c2cc(COc3ccccc3F)[nH]n2)CC1 | -23.69 | -0.3285 | 18.09 | 3.226
Fc1ccc(OCC2CCCO2)c(NCc2cn3cccnc3n2)c1 (configuration not stated) | - | 0.7387 | -4.11 | 9.788
COCCCn1c(CN2CCSCC2)cnc1S(=O)(=O)C1CCCC1 | -5.33 | 6.199 | 20 | 2.776
CC(=O)N1CCC(NC(=O)CN2CCCc3c(C)ccc(F)c32)CC1 | 4.92 | -1.398 | -17.65 | 5.45
Cc1ccc(C(=O)N2C[C@@H](OCC3CCOCC3)[C@H]3OCCC[C@H]32)o1 | -4.113 | 2.042 | 17.65 | -3.164
CN1Cc2ccccc2CC2(CCN(c3ncc(F)cn3)CC2)C1=O | -34.19 | 4.079 | 20.51 | 6.686
CCS(=O)(=O)N1CCC(c2nc3ccc(-c4ccccc4)cn3n2)CC1 | -9.412 | 1.749 | 7.619 | -5.181
O=C(c1ccco1)N1CCC2(CCOC2)C1 (configuration not stated) | -35.08 | 14.31 | 11.65 | -3.015
Cc1ccc(C(CNC(=O)c2cc(=O)c3ccccc3[nH]2)N(C)C)cc1 (configuration not stated) | -20.2 | 12.51 | 13.33 | 3.065
COc1ccc(CCC(=O)N2CCN(c3nc(C)ns3)CC2)cc1 | -17.53 | -0.8498 | 4.145 | -0.7157
COc1cccc(CNC(C)C)c1OCc1ccc(C)cc1 | -8.24 | 2.517 | -1.639 | -2.254
CC(NCc1ccc(OCC(N)=O)cc1)c1ccc(Cl)cc1 (configuration not stated) | 8.791 | 2.59 | 24.79 | -0.6255
O=C(Cc1cccs1)NCC(=O)Nc1cn[nH]c1 | -4.145 | 5.89 | 6.25 | -6.226
O=C(c1ccc(N2CCCC2)nc1)N1CCCC(c2nccs2)C1 (configuration not stated) | -13.21 | 4.202 | 20 | -0.1356
CC(C)NC(=O)N1CCC[C@H]1C(=O)NCCCc1cnn(C)c1 | -44.67 | 1.981 | 5.208 | -2.993
CCc1ncc(C(=O)NC(C)(C)CC)s1 | -15.16 | 2.276 | 14.29 | -1.833
C[C@@H]1C[C@H](C(F)(F)F)n2nc(C3CCN(S(=O)(=O)N(C)C)CC3)cc2N1 | 0.1098 | 3.507 | 2 | -
CNC(=O)N(C)CC1(c2ccc(Br)cc2)CC1 | -3.824 | -0.2394 | 10.71 | -0.5025
CCN1CC2(CC1=O)CN(C(=O)c1ccco1)CCN(C(=O)N(C)C)C2 (configuration not stated) | -19.93 | 2.481 | 11.43 | -3.043

The first 4 entries again:

| SMILES | Pks13 thioesterase | PfKRS1 | LiHisRS | MtTrpRS |
|---|---|---|---|---|
| `Cc1ccc2nc(C)c(C)c(C(=O)N[C@H]3COC[C@@H]3N3CCCC3)c2c1` | 9.014 | 8.247 | 2.632 | -4.054 |
| `C[C@@H]1CN(C(=O)CCCn2nnc(-c3ccc(F)cc3)n2)C[C@]1(C)O` | 8.955 | -1.864 | -5.833 | 12.8 |
| `Cc1cnn(CC2CN(CC(=O)N(C)c3nccs3)CCO2)c1` (configuration not stated) | -11.13 | 1.352 | 17.57 | 3.125 |
| `Cc1ccc2cnn(CCC(=O)Nc3c(C)nn(C)c3C)c2c1` | -2.72 | 0.5253 | 8.491 | -1.574 |

Source: ChEMBL document CHEMBL3988442, “University of Dundee, Small-Polar-MMV Screening Library” (2021).